In paper PMC9709080:
No constants are given. Whether binding was seen depends on the method and setting. Binding seen in cells or lysates may run through a third protein. Some entries that bind do so weakly or less than the wild type.

Protein sequences, listed by entry. Tags and fused reporters are not part of them. Lines headed by an entry give the natural chain unless they say otherwise; changes in a name come on top.
UniProt P05556: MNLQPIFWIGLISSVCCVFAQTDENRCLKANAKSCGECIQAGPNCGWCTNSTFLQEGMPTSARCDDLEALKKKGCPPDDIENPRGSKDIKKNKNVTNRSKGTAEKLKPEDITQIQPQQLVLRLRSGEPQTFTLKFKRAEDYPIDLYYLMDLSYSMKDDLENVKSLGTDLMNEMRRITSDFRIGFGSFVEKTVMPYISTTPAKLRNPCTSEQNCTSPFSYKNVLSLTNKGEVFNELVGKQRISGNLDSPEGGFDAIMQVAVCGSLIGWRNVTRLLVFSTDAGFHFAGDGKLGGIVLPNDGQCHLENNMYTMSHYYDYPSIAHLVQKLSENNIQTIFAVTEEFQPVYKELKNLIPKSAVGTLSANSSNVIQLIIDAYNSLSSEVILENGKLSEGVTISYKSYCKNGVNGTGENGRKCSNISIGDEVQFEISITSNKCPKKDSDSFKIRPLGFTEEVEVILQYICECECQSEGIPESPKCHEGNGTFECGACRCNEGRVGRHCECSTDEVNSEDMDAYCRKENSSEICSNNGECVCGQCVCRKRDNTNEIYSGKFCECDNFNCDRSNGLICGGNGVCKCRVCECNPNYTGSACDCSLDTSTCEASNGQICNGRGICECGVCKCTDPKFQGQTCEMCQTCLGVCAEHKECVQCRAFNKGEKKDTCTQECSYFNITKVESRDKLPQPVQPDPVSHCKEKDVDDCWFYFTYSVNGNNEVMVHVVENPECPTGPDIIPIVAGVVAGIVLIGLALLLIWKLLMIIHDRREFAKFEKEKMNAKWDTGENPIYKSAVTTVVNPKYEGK

How the values were obtained:
Assay in all cases: co-IP; mouse monoclonal antibody to integrin α1, αv, β1, β5 or V5 on anti-mouse IgG Dynabeads M280; 200 ug total protein of SH-SY5Y TRPM2 KO cells reconstituted with TRPM2, grown without serum for 24 h; overnight at 4 °C; washed five times with PBS with protease inhibitors; Western blot of eluates
[1] = target: integrin β1 (ITGB1) (human (endogenous in SH-SY5Y)) (UniProt P05556)
[2] = target: V5-labeled TRPM2 (wild type, full length) (human) (UniProt O94759)
[3] = target: integrin α1 (ITGA1) (human (endogenous in SH-SY5Y)) (UniProt P56199)

| binding [1] | binding [2] | binding [3] | Substance |
| --- | --- | --- | --- |
| binds | no binding | – | integrin α1 (ITGA1) (from UniProt P56199 29-1179) (receptor) |
| – | no binding | binds | integrin β1 (ITGB1) (from UniProt P05556 21-798) (receptor) |
